Results published in patent US12473303B2, “4-[[(7-aminopyrazolo[1,5-a]pyrimidin-5-yl)amino methyl]piperidin-3-ol compounds and their therapeutic use” (CARRICK THERAPEUTICS LIMITED, priority 2019, dated 2025).

System: A673 cells
Assay: Cellular potency in A673 cells
Format: cell-based
Conditions: Homo sapiens, Table 2

IC50: 4.9 nM
Structure (SMILES): CCc1cnn2c(NCc3ccc[n+]([O-])c3)cc(N3CCCC[C@H]3CCO)nc12 [Dinaciclib, reference compound]
